According to the supplement of paper PMC6411743:
± gives the standard deviation of the averaged measurements. The list shows a part of the results, in another mix than the full data.

Amino acid sequences for entries named in this document (tags omitted). A change or cut given only in a name is not applied to a line headed by its entry.
UniProt Q13362, whole entry, looked up: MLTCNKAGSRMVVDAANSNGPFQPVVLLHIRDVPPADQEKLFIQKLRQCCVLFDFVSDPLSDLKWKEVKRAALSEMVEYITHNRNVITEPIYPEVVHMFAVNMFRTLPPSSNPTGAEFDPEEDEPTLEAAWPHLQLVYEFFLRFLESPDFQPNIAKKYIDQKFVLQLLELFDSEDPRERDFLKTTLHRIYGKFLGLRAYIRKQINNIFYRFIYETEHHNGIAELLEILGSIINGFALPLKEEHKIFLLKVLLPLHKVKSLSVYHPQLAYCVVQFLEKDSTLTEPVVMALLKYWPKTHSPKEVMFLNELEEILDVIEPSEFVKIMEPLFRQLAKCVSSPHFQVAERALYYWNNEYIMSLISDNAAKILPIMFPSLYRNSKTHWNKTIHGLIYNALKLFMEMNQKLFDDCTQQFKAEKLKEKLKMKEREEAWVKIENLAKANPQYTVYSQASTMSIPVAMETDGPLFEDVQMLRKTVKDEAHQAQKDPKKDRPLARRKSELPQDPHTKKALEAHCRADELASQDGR
UniProt Q02809: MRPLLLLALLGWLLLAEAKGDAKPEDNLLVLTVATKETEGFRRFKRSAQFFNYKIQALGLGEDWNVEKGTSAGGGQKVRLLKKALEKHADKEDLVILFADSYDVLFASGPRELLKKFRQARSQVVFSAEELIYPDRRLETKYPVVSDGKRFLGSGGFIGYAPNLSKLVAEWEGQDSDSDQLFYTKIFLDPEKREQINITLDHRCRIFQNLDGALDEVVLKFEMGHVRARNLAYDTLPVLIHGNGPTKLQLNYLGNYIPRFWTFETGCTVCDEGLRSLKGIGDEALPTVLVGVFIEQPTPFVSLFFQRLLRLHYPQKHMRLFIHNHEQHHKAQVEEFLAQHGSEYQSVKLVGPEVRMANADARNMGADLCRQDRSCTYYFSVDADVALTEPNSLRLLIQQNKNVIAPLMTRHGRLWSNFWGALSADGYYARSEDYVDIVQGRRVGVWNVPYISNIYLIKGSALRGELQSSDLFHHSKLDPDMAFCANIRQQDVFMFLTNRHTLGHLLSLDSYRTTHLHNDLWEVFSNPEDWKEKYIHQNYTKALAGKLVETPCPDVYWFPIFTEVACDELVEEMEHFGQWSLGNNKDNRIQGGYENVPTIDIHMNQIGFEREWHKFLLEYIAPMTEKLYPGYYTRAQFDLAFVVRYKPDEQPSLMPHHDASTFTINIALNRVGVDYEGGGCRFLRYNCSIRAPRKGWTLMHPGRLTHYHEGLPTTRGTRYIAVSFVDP
UniProt Q12906, whole entry: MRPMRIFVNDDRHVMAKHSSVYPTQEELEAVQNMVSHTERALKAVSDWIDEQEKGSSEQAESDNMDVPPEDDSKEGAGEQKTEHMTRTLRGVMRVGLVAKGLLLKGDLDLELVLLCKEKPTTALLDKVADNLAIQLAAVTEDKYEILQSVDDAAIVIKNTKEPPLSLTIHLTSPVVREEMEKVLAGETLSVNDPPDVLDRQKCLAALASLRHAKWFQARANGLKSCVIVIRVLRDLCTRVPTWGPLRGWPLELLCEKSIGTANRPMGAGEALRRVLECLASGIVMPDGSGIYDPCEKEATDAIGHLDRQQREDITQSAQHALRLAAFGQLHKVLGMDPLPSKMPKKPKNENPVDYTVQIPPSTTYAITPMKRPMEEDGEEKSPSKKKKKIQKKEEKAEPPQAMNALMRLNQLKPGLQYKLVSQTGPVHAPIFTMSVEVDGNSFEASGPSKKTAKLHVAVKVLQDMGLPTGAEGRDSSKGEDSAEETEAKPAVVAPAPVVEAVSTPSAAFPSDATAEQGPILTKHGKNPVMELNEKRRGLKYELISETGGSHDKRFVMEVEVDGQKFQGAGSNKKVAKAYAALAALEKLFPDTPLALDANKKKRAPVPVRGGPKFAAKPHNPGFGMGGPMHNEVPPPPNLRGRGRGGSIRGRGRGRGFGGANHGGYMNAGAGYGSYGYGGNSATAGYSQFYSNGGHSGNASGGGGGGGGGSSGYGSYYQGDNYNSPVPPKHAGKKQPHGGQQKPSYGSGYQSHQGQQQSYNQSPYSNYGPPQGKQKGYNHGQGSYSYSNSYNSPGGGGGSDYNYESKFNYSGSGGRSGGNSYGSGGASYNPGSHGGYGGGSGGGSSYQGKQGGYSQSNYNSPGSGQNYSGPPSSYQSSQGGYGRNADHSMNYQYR
UniProt Q12846: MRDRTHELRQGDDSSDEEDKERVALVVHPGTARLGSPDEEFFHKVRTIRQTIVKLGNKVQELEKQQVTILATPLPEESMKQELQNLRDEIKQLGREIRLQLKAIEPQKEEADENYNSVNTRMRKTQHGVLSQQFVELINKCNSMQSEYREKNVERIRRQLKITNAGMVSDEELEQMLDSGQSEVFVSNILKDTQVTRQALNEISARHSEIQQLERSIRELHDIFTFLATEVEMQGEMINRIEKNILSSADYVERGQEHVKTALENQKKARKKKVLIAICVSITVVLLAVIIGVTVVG
UniProt Q02790: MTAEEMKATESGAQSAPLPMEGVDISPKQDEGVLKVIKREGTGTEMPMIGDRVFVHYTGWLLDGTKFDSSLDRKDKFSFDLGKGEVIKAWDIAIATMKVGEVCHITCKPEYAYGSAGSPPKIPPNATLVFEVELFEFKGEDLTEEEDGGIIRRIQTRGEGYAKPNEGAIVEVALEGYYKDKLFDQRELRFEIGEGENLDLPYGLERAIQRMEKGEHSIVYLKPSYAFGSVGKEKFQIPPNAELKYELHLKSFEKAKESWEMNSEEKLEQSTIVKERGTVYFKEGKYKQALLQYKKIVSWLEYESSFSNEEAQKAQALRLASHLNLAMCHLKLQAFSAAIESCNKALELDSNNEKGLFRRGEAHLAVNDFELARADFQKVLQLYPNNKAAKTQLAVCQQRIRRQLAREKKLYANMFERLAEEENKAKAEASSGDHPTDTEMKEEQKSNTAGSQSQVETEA
UniProt Q01518, whole entry: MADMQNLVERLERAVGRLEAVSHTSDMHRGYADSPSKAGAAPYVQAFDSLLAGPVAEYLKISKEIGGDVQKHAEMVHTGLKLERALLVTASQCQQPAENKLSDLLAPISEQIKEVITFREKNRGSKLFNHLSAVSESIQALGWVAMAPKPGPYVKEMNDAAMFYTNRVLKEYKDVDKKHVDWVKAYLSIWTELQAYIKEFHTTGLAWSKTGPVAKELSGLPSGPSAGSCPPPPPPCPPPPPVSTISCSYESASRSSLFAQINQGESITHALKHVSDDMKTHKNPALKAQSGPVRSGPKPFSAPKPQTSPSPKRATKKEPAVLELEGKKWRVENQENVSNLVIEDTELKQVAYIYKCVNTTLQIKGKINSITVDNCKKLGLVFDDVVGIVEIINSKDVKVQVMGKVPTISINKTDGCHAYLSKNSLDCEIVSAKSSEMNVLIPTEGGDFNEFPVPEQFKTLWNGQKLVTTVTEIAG
UniProt Q13395: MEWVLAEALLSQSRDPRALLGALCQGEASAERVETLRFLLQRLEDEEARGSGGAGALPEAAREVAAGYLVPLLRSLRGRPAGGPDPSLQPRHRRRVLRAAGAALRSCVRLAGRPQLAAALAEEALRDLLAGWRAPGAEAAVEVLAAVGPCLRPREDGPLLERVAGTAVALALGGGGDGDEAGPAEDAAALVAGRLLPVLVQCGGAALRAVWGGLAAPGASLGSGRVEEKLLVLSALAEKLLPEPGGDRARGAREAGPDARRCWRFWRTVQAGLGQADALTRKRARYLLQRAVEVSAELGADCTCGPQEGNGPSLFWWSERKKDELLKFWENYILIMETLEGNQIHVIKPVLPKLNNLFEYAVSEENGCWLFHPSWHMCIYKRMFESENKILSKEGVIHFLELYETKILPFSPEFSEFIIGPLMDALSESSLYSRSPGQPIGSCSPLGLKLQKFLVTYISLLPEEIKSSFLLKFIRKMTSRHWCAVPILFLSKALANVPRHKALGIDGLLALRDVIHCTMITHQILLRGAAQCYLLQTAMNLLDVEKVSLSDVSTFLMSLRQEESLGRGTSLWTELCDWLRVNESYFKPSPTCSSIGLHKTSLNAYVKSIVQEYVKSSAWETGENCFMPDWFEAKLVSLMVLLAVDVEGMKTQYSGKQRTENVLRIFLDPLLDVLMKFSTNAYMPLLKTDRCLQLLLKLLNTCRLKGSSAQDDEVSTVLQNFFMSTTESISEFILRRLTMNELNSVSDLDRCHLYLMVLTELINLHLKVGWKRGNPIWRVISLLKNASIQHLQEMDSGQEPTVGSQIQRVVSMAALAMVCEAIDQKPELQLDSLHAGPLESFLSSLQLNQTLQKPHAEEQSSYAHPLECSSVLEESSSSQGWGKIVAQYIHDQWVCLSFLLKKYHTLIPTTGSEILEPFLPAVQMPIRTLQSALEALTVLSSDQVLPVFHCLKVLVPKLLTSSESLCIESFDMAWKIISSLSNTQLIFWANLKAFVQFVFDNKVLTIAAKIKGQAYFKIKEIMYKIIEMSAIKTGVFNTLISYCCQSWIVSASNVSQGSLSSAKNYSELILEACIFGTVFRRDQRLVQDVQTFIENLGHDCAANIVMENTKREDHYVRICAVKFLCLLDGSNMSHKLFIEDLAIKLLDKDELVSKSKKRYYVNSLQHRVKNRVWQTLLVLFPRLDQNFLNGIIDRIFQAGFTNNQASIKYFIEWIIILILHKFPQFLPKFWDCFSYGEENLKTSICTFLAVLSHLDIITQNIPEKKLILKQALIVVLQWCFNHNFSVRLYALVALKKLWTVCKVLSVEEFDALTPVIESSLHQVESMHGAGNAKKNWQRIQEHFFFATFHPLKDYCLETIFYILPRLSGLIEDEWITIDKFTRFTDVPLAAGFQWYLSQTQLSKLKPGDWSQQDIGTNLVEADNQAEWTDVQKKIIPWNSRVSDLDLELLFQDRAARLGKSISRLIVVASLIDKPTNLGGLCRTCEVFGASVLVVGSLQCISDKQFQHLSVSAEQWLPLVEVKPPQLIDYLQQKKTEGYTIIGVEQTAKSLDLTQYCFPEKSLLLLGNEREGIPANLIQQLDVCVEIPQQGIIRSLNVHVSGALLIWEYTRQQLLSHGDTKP
UniProt Q13042, whole entry: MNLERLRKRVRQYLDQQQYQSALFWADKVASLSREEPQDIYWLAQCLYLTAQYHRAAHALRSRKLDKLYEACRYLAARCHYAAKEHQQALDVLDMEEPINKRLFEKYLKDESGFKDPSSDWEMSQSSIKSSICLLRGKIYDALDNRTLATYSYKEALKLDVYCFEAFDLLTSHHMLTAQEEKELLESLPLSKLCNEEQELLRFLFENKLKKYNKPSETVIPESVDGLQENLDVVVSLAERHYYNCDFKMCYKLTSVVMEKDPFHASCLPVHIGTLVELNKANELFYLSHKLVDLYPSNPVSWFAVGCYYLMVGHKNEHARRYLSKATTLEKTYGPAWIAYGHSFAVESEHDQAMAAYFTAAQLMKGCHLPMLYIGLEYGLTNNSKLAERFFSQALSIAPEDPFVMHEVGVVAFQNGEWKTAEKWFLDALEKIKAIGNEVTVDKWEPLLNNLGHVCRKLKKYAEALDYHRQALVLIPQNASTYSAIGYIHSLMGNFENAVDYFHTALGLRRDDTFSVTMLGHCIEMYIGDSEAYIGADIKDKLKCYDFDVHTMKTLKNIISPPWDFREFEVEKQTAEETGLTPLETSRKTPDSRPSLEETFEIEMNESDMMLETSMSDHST
UniProt Q06136: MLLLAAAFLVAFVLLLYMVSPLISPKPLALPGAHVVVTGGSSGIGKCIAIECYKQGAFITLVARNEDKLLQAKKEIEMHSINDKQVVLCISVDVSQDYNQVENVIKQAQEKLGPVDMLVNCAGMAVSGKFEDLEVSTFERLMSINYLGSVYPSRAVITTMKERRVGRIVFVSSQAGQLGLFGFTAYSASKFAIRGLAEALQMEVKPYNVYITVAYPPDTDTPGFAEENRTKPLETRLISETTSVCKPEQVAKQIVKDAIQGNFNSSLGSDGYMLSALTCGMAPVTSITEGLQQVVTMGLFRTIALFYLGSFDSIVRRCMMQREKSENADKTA
UniProt Q13564: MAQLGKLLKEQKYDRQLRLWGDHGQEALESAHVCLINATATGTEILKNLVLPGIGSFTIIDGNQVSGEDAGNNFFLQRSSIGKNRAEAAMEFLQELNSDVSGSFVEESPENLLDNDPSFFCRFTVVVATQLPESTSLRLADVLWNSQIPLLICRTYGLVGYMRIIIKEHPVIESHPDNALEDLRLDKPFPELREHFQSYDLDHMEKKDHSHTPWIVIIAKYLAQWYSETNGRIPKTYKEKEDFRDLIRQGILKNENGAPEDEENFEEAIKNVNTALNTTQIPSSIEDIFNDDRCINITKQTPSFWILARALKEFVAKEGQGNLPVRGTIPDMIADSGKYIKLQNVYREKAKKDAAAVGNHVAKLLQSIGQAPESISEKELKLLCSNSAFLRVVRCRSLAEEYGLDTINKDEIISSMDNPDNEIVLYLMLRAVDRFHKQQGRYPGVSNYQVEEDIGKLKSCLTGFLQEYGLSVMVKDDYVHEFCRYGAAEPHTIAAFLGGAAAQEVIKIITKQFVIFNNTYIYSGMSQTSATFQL

Compound: Nc1ncnc2c1ncn2[C@@H]1O[C@H](COP(=O)(O)OP(=O)(O)OP(=O)(O)O)[C@@H](O)[C@H]1O [adenosine triphosphate]
Assay: NP40-soluble protein abundance relative to vehicle (solubility fold change) (ratio); higher = more soluble protein in presence of ATP
In short: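 Each value is a fold change relative to the detergent-processed vehicle, calculated per replicate from vsn-normalised intensities. Jurkat crude lysate received eight concentrations (0.1 to 10 mM) for 10 min at room temperature and 3 min at 37 °C, then was solubilised in 0.8% NP40 with benzonase (60 min, 4 °C). The ultracentrifuged supernatant was TMT-labelled and run by LC-MS/MS in three independent experiments.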

Target	NP40-soluble protein abundance (concentration: 1mM)	NP40-soluble protein abundance (concentration: 2mM)	NP40-soluble protein abundance (concentration: 4mM)	NP40-soluble protein abundance (concentration: 6mM)	NP40-soluble protein abundance (concentration: 8mM)	NP40-soluble protein abundance (concentration: 10mM)
UniProt Q04760 and related entries	0.884 ± 0.021	0.884 ± 0.012	0.895 ± 0.067	0.856 ± 0.032	0.874 ± 0.027	0.839 ± 0.093
UniProt Q13362-2|Q13362-3|Q13362-4|Q13362 and related entries	0.951 ± 0.034	0.955 ± 0.04	0.9473 ± 0.0068	0.977 ± 0.01	0.947 ± 0.039	0.951 ± 0.049
UniProt Q02447-3	0.922 ± 0.074	0.908 ± 0.012	0.889 ± 0.01	0.918 ± 0.03	0.889 ± 0.033	0.889 ± 0.039
IQGAP2 (UniProt Q13576)	1.05 ± 0.047	1.04 ± 0.039	1.02 ± 0.028	1.01 ± 0.041	1.04 ± 0.021	1.03 ± 0.027
PAK2 (UniProt Q13177)	0.959 ± 0.022	0.946 ± 0.022	0.904 ± 0.03	0.965 ± 0.036	0.912 ± 0.036	0.907 ± 0.026
UniProt Q05086 and related entries	0.972 ± 0.027	0.958 ± 0.032	0.928 ± 0.025	0.945 ± 0.043	0.9466 ± 0.0092	0.935 ± 0.032
COTL1 (UniProt Q14019)	0.882 ± 0.014	0.908 ± 0.058	0.8537 ± 0.0072	0.888 ± 0.058	0.863 ± 0.022	0.863 ± 0.038
FKBP5 (UniProt Q13451)	0.975 ± 0.02	0.959 ± 0.022	0.96 ± 0.025	0.979 ± 0.044	0.954 ± 0.034	0.941 ± 0.043
SP4 (UniProt Q02446)	0.936 ± 0.039	0.942 ± 0.059	0.955 ± 0.019	0.96 ± 0.099	0.909 ± 0.037	0.961 ± 0.06
UniProt Q12912 and related entries	1.05 ± 0.086	1.07 ± 0.058	1.05 ± 0.078	1.07 ± 0.11	1.02 ± 0.066	1.05 ± 0.043
UniProt Q02809 and related entries	1.1 ± 0.015	1.02 ± 0.014	1.08 ± 0.042	1.1 ± 0.096	1.02 ± 0.055	1.1 ± 0.07
CUL1 (UniProt Q13616)	0.993 ± 0.083	0.97 ± 0.053	0.933 ± 0.054	0.934 ± 0.056	0.964 ± 0.042	0.941 ± 0.042
UniProt Q13363 and related entries	1.05 ± 0.1	1.05 ± 0.12	1.03 ± 0.086	0.992 ± 0.16	1.05 ± 0.087	1.06 ± 0.11
CKAP5 (UniProt Q14008)	0.965 ± 0.012	0.976 ± 0.02	0.957 ± 0.023	0.984 ± 0.011	0.957 ± 0.035	0.987 ± 0.032
CSTF3 (UniProt Q12996)	1.08 ± 0.039	1.07 ± 0.02	1.11 ± 0.013	1.11 ± 0.036	1.165 ± 0.008	1.17 ± 0.042
UniProt Q12802 and related entries	1.05 ± 0.022	1.03 ± 0.019	1.06 ± 0.046	1.07 ± 0.05	1 ± 0.021	1.05 ± 0.03
UniProt Q12906 and related entries	1.09 ± 0.042	1.13 ± 0.069	1.17 ± 0.083	1.26 ± 0.07	1.29 ± 0.093	1.39 ± 0.11
Q13888 and related entries (UniProt Q6P1K8+Q13888)	1.1 ± 0.074	1.11 ± 0.031	1.15 ± 0.057	1.11 ± 0.078	1.15 ± 0.058	1.17 ± 0.08
SF3A3 (UniProt Q12874)	1.09 ± 0.039	1.093 ± 0.0065	1.082 ± 0.0097	1.15 ± 0.019	1.13 ± 0.02	1.1 ± 0.034
TUBB3 (UniProt Q13509)	1.02 ± 0.058	0.997 ± 0.041	0.992 ± 0.041	0.986 ± 0.042	0.991 ± 0.015	1.02 ± 0.038

Target	NP40-soluble protein abundance (concentration: 1mM)	NP40-soluble protein abundance (concentration: 2mM)	NP40-soluble protein abundance (concentration: 4mM)	NP40-soluble protein abundance (concentration: 6mM)	NP40-soluble protein abundance (concentration: 8mM)	NP40-soluble protein abundance (concentration: 10mM)
LGALS3BP (UniProt Q08380)	1.02 ± 0.092	0.964 ± 0.063	0.963 ± 0.12	0.956 ± 0.16	0.965 ± 0.12	0.944 ± 0.087
STX4 (UniProt Q12846)	0.975 ± 0.042	0.993 ± 0.035	0.981 ± 0.016	0.998 ± 0.032	0.969 ± 0.035	0.96 ± 0.036
UniProt Q01831 and related entries	0.993 ± 0.021	0.991 ± 0.032	0.999 ± 0.04	1.01 ± 0.024	1.05 ± 0.041	1.05 ± 0.023
GOLGA3 (UniProt Q08378)	0.981 ± 0.088	0.965 ± 0.062	0.956 ± 0.053	1 ± 0.11	0.937 ± 0.049	0.94 ± 0.037
PLCB3 (UniProt Q01970)	1 ± 0.031	1.01 ± 0.036	1 ± 0.036	0.988 ± 0.06	0.984 ± 0.044	1.03 ± 0.07
UniProt Q01968 and related entries	1.03 ± 0.053	1.06 ± 0.043	1.12 ± 0.089	1.03 ± 0.075	1.1 ± 0.032	1.05 ± 0.05
UniProt Q13439-4|Q13439-5|Q13439	0.96 ± 0.024	0.9643 ± 0.0088	0.969 ± 0.016	0.988 ± 0.035	0.935 ± 0.014	0.95 ± 0.011
UniProt Q04727 and related entries	0.937 ± 0.033	0.909 ± 0.025	0.808 ± 0.13	0.877 ± 0.043	0.796 ± 0.13	0.778 ± 0.12
FKBP4 (UniProt Q02790)	0.989 ± 0.024	0.972 ± 0.024	0.927 ± 0.027	0.959 ± 0.063	0.94 ± 0.029	0.94 ± 0.041
UniProt Q13131 and related entries	1.01 ± 0.033	0.994 ± 0.034	0.997 ± 0.051	0.994 ± 0.082	1.03 ± 0.046	1 ± 0.026
FOXK2 (UniProt Q01167)	1.01 ± 0.039	1.01 ± 0.044	0.994 ± 0.042	1.03 ± 0.044	0.97 ± 0.054	1.01 ± 0.03
SSBP1 (UniProt Q04837)	0.956 ± 0.048	0.943 ± 0.035	0.909 ± 0.016	0.906 ± 0.044	0.912 ± 0.013	0.909 ± 0.029
MTMR2 (UniProt Q13614)	1.04 ± 0.032	1.09 ± 0.064	1.1 ± 0.019	1.02 ± 0.057	1.05 ± 0.068	1.09 ± 0.038
VAC14 (UniProt Q08AM6)	1.03 ± 0.024	0.973 ± 0.024	0.978 ± 0.027	0.967 ± 0.042	0.99 ± 0.02	0.978 ± 0.016
CBX3 (UniProt Q13185)	0.916 ± 0.04	0.913 ± 0.028	0.856 ± 0.023	0.941 ± 0.041	0.9 ± 0.011	0.901 ± 0.045
UniProt Q01518 and related entries	0.946 ± 0.051	0.921 ± 0.026	0.87 ± 0.046	0.929 ± 0.027	0.873 ± 0.05	0.892 ± 0.028
ECH1 (UniProt Q13011)	0.968 ± 0.032	0.96 ± 0.042	0.91 ± 0.023	0.957 ± 0.048	0.94 ± 0.028	0.918 ± 0.037
UniProt Q01105-2	0.866 ± 0.11	0.911 ± 0.037	0.859 ± 0.17	0.813 ± 0.3	0.873 ± 0.047	0.734 ± 0.096
PRKCQ (UniProt Q04759)	1.04 ± 0.086	1.04 ± 0.092	1.02 ± 0.059	0.969 ± 0.1	1.05 ± 0.059	1.02 ± 0.05
UniProt Q04726-3|Q04726-7|H0YKT5 and related entries	0.977 ± 0.027	0.969 ± 0.028	0.943 ± 0.022	0.948 ± 0.056	0.937 ± 0.047	0.938 ± 0.045

Already shown: entries from further up.
Target	NP40-soluble protein abundance (concentration: 1mM)	NP40-soluble protein abundance (concentration: 2mM)	NP40-soluble protein abundance (concentration: 4mM)	NP40-soluble protein abundance (concentration: 6mM)	NP40-soluble protein abundance (concentration: 8mM)	NP40-soluble protein abundance (concentration: 10mM)
STX4 (UniProt Q12846)	0.975 ± 0.042	0.993 ± 0.035	0.981 ± 0.016	0.998 ± 0.032	0.969 ± 0.035	0.96 ± 0.036
UniProt Q01831 and related entries	0.993 ± 0.021	0.991 ± 0.032	0.999 ± 0.04	1.01 ± 0.024	1.05 ± 0.041	1.05 ± 0.023
GOLGA3 (UniProt Q08378)	0.981 ± 0.088	0.965 ± 0.062	0.956 ± 0.053	1 ± 0.11	0.937 ± 0.049	0.94 ± 0.037

Later entries:

Target	NP40-soluble protein abundance (concentration: 1mM)	NP40-soluble protein abundance (concentration: 2mM)	NP40-soluble protein abundance (concentration: 4mM)	NP40-soluble protein abundance (concentration: 6mM)	NP40-soluble protein abundance (concentration: 8mM)	NP40-soluble protein abundance (concentration: 10mM)
EXOSC10 (UniProt Q01780)	1.08 ± 0.022	1.08 ± 0.017	1.155 ± 0.0069	1.21 ± 0.035	1.26 ± 0.024	1.31 ± 0.051
IFIT5 (UniProt Q13325)	1.02 ± 0.086	0.982 ± 0.076	0.984 ± 0.05	0.959 ± 0.11	0.969 ± 0.063	0.943 ± 0.031
UniProt Q12931 and related entries	0.997 ± 0.11	0.994 ± 0.11	0.972 ± 0.075	0.906 ± 0.16	1.01 ± 0.052	0.983 ± 0.063
UniProt Q00839 and related entries	1.07 ± 0.13	0.966 ± 0.2	0.999 ± 0.11	1.11 ± 0.35	1.18 ± 0.073	0.989 ± 0.2
UniProt Q05519 and related entries	1.5 ± 0.11	1.5 ± 0.075	1.49 ± 0.12	1.57 ± 0.074	1.46 ± 0.11	1.45 ± 0.098
UniProt Q02241 and related entries	1.17 ± 0.049	1.19 ± 0.025	1.22 ± 0.016	1.21 ± 0.017	1.23 ± 0.023	1.23 ± 0.032
UniProt Q04864-2	0.981 ± 0.03	1.007 ± 0.0057	0.987 ± 0.028	0.9753 ± 0.0086	0.967 ± 0.033	0.974 ± 0.013
UniProt Q04656 and related entries	0.994 ± 0.023	1.01 ± 0.067	1.01 ± 0.063	0.986 ± 0.065	0.96 ± 0.029	0.958 ± 0.039
EIF3I (UniProt Q13347)	1.03 ± 0.044	1.03 ± 0.022	1.07 ± 0.015	1.18 ± 0.023	1.296 ± 0.011	1.35 ± 0.024
MAD2L1 (UniProt Q13257)	0.979 ± 0.12	0.978 ± 0.059	0.946 ± 0.07	0.892 ± 0.13	0.964 ± 0.073	0.947 ± 0.023
TARBP1 (UniProt Q13395)	1.02 ± 0.06	1.058 ± 0.0072	1.059 ± 0.0099	0.943 ± 0.06	1.034 ± 0.0019	1.08 ± 0.045
DNAJC3 (UniProt Q13217)	0.977 ± 0.031	1.001 ± 0.0099	0.955 ± 0.018	0.995 ± 0.025	0.963 ± 0.0096	0.964 ± 0.015
UniProt Q14139 and related entries	0.984 ± 0.079	0.993 ± 0.075	0.975 ± 0.043	0.93 ± 0.1	0.958 ± 0.012	0.967 ± 0.039
UniProt Q13042 and related entries	1.05 ± 0.093	1.02 ± 0.047	0.996 ± 0.018	0.898 ± 0.015	1.06 ± 0.058	1.01 ± 0.07
UniProt Q06136 and related entries	0.919 ± 0.1	0.994 ± 0.071	0.964 ± 0.092	0.957 ± 0.08	0.936 ± 0.086	0.96 ± 0.018
UniProt Q00722 and related entries	0.955 ± 0.027	1.02 ± 0.09	1.04 ± 0.12	1.03 ± 0.086	1.01 ± 0.072	0.995 ± 0.074
UniProt Q13105 and related entries	1.12 ± 0.012	1.07 ± 0.056	1.12 ± 0.062	1.31 ± 0.24	1.23 ± 0.069	1.28 ± 0.033
OTUD4 (UniProt Q01804)	1.02 ± 0.068	1.06 ± 0.04	1.07 ± 0.079	1.07 ± 0.053	1.05 ± 0.054	1.047 ± 0.0048
DAG1 (UniProt Q14118)	0.969 ± 0.11	0.915 ± 0.089	0.891 ± 0.1	0.934 ± 0.076	0.875 ± 0.082	0.841 ± 0.11
UniProt Q13564 and related entries	1.01 ± 0.043	1.02 ± 0.022	1 ± 0.025	1 ± 0.059	0.977 ± 0.018	0.984 ± 0.025
